Some results were stated once for a whole list of compounds, not compound by compound.
System: human hepatoma Huh-7 cell line harboring a HCV replicon
Assay type: cell-based

5-(3,3-Dimethyl-but-1-ynyl)-3-[[trans-4-(dimethyl-phosphinoyloxy)-cyclobutyl]-cis-4-methyl-cyclohexanecarbonyl)-amino]-thiophene-2-carboxylic acid [Compound 17]
EC50: ≤ 500 nM
